Results on one molecule are retold here after US20200317808A1 (AbbVie / Abbott, published 2020).

The target in this assay is T1, cynomolgus PD-1 Fc fusion (cynomolgus monkey, UniProt B0LAJ3 25-170).
T1 construct: also called Cyno PD-1 (ELISA)
As to the kind of experiment: ELISA on plate bound cynomolgus PD-1 Fc fusion. On the technique in general: In an ELISA, binding on a coated surface is turned into a signal by an enzyme label.

These are yes or no findings as the source states them, for the method shown. Some entries that bind do so weakly or less than the wild type.

B1: Humanized 12A11.2b with M99L in CDR-H3 (antibody, V domains shown)
VH: EIQLVQSGAEVKKPGSSVKVSCKASGYTFTHYGMNWVRQAPGQGLEWVGWVNTYTGEPTYADDFKGRLTFTLDTSTSTAYMELSSLRSEDTAVYYCTREGEGLGFGDWGQGTTVTVSS
VL: DVVMTQSPLSLPVTPGEPASISCRSSQSIVHSHGDTYLEWYLQKPGQSPQLLIYKVSNRFSGVPDRFSGSGSGTDFTLKISRVEAEDVGVYYCFQGSHIPVTFGQGTKLEIK
notes: It was detected with anti-human Fab and captured with anti-human IgG Fc; also called Hu12A11.2b4; humanized antibody 12A11.2b M99L
As for B1, the binding result is recorded as “binds”.
